Source: article doi:10.1101/2021.12.31.474671
These are yes or no findings as the source states them, for the method shown. Some results given as binding are weak or reduced against the parent protein; the word gives no strength.

Sequences of proteins named here, by UniProt entry; tags and fusion partners are left off. Residues count along the entry.
UniProt Q8K2F0, residues 554-640: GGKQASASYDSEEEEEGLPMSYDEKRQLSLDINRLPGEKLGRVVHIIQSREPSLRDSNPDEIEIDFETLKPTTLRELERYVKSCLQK

Molecular target: BRD3 ET domain (extraterminal domain of BRD3, residues 554 to 640) (murine (methods); human (abbreviations)) (UniProt Q8K2F0)
Assay: NMR titration

Row | Binder | binding
1 | SRLTWRVQRSQNPLKIRLTREAP [23-residue C-terminal tail peptide (TP) of MLV integrase (IN)] | binds
2 | EFTGSPEIKLKITKTIQNGRELFESSLCGDLLNEVQASE [ET-binding polypeptide segment of NSD3 (Nuclear Receptor Binding SET Domain Protein 3)] | binds
